Source: patent US20230002497A1 (INSERM INSTITUT NATIONAL DE LA SANTE ET DE LA RECHERCHE …, published 2023)
These are yes or no findings as the source states them, for the method shown. Some entries that bind do so weakly or less than the wild type.

Legend:
[1] = molecular target: T1, recombinant mouse IL-20Rb (mouse) (UniProt E9Q9A6); test: conclusion of the example (ELISA, FIG. 8)
T1 sequence: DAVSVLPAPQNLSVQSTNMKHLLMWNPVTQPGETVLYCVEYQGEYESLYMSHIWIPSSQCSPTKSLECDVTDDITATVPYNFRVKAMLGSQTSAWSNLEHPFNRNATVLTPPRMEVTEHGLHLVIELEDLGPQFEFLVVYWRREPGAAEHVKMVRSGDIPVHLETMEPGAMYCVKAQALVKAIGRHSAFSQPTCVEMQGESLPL

[2] = molecular target: T1, recombinant mouse IL-20Rb (mouse); test: ELISA on coated recombinant IL-20Rb (FIG. 8)

B1: B7 antibody (native B7 clone), human anti-IL-20Rb antibody (antibody, mouse IgG2a, V domains shown)
VH: EVQLVESGGSLVKPGGSLRLSCAASGFTFSNYSMNWVRQAPGKGLEWISYISGSSRYISYADFVKGRFTISRDNATNSLYLQMNSLRAEDTAVYYCVRSYYGMDVWGRGTLVTVSS
VL: QSVLTQPASVSGSPGQSITISCAGTSSDVGGNYYVSWYQQHPGKAPKLMIYGDSYRPSGVSNRFSGSKSGNTASLTISGLQAEDEADYYCSSYTYYSTRVFGGGTKLAVLG
Question: With B1 as the binder, how does the binding [1] read?
Answer: binds

Question: What about the binding [2] of the same binder?
Answer: binds
